{"source": "PubChem BioAssay AID1508597, Cure First – 2020", "purpose": "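Knock-downs altering ovarian cancer cell survival with or without PARP inhibitor rucaparib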 (primary screen)", "cell system": "human ovarian carcinoma lines grown from tumours: OCI-P5x (papillary serous) and OCI-C5x (clear cell)", "reagent": "siRNA pool against human genes, 1.25 pmol siRNA per well", "time to read-out": "72 h or 96 h, depending on the cell culture", "challenge": "rucaparib 20 µM (about IC30) or vehicle, present until read-out", "rucaparib or vehicle": "Vehicle", "cell line": "OCI-P5x (serous)", "read-out": "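ATP luminescence measured at 72 or 96 h according to the culture, then normalised and expressed as percent viability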", "direction": "viability, normalised: higher = more viable cells remaining", "active means": "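a well counts as a hit if its normalised viability is under 80 percent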", "calls": "active = viability under 80%; inactive = viability 80% or more", "note": "Shown is an unselected part of the about 2,100 reagents, under one of the conditions tested. 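Calls flag viability under 80% in either arm, not effects specific to rucaparib; the reference for percent is not stated.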 A reagent listed more than once was tested more than once; the source does not tell the runs apart. Not given: the 100% reference."}
{"target gene": "IL23A (interleukin 23 subunit alpha)", "technical replicate": "1", "viability, normalised (%)": 56.8, "activity call": "active"}
{"target gene": "IL23A (interleukin 23 subunit alpha)", "technical replicate": "2", "viability, normalised (%)": 67.6, "activity call": "active"}
{"target gene": "IL23A (interleukin 23 subunit alpha)", "technical replicate": "3", "viability, normalised (%)": 104, "activity call": "inactive"}
{"target gene": "SFPQ (splicing factor proline and glutamine rich)", "technical replicate": "1", "viability, normalised (%)": 46.4, "activity call": "active"}
{"target gene": "SFPQ (splicing factor proline and glutamine rich)", "technical replicate": "2", "viability, normalised (%)": 42.4, "activity call": "active"}
{"target gene": "SFPQ (splicing factor proline and glutamine rich)", "technical replicate": "3", "viability, normalised (%)": 54.7, "activity call": "active"}
{"target gene": "FMN2 (formin 2)", "technical replicate": "1", "viability, normalised (%)": 60.4, "activity call": "active"}
{"target gene": "FMN2 (formin 2)", "technical replicate": "2", "viability, normalised (%)": 49.3, "activity call": "active"}
{"target gene": "FMN2 (formin 2)", "technical replicate": "3", "viability, normalised (%)": 55.2, "activity call": "active"}
{"target gene": "SLC1A3", "technical replicate": "1", "viability, normalised (%)": 54.6, "activity call": "active"}
{"target gene": "SLC1A3", "technical replicate": "2", "viability, normalised (%)": 69.8, "activity call": "active"}
{"target gene": "SLC1A3", "technical replicate": "3", "viability, normalised (%)": 63.3, "activity call": "active"}

Next part; the last 3 above are carried over.
{"target gene": "SLC1A3", "technical replicate": "1", "viability, normalised (%)": 54.6, "activity call": "active"}
{"target gene": "SLC1A3", "technical replicate": "2", "viability, normalised (%)": 69.8, "activity call": "active"}
{"target gene": "SLC1A3", "technical replicate": "3", "viability, normalised (%)": 63.3, "activity call": "active"}
{"target gene": "CHM (CHM Rab escort protein)", "technical replicate": "1", "viability, normalised (%)": 56.1, "activity call": "active"}
{"target gene": "CHM (CHM Rab escort protein)", "technical replicate": "2", "viability, normalised (%)": 65.1, "activity call": "active"}
{"target gene": "CHM (CHM Rab escort protein)", "technical replicate": "3", "viability, normalised (%)": 62.4, "activity call": "active"}
{"target gene": "ALDH18A1 (aldehyde dehydrogenase 18 family member A1)", "technical replicate": "1", "viability, normalised (%)": 107, "activity call": "inactive"}
{"target gene": "ALDH18A1 (aldehyde dehydrogenase 18 family member A1)", "technical replicate": "2", "viability, normalised (%)": 96.7, "activity call": "inactive"}
{"target gene": "ALDH18A1 (aldehyde dehydrogenase 18 family member A1)", "technical replicate": "3", "viability, normalised (%)": 87, "activity call": "inactive"}
{"target gene": "BAIAP2 (BAR/IMD domain containing adaptor protein 2)", "technical replicate": "1", "viability, normalised (%)": 77.4, "activity call": "active"}
{"target gene": "BAIAP2 (BAR/IMD domain containing adaptor protein 2)", "technical replicate": "2", "viability, normalised (%)": 62.8, "activity call": "active"}
{"target gene": "BAIAP2 (BAR/IMD domain containing adaptor protein 2)", "technical replicate": "3", "viability, normalised (%)": 74.6, "activity call": "active"}
{"target gene": "ARID1A (AT-rich interaction domain 1A)", "technical replicate": "1", "viability, normalised (%)": 63.8, "activity call": "active"}
{"target gene": "ARID1A (AT-rich interaction domain 1A)", "technical replicate": "2", "viability, normalised (%)": 53, "activity call": "active"}
{"target gene": "ARID1A (AT-rich interaction domain 1A)", "technical replicate": "3", "viability, normalised (%)": 76.7, "activity call": "active"}
{"target gene": "TLK2 (tousled like kinase 2)", "technical replicate": "1", "viability, normalised (%)": 47.9, "activity call": "active"}
{"target gene": "TLK2 (tousled like kinase 2)", "technical replicate": "1", "viability, normalised (%)": 62.7, "activity call": "active"}
{"target gene": "TLK2 (tousled like kinase 2)", "technical replicate": "2", "viability, normalised (%)": 69.9, "activity call": "active"}
{"target gene": "TLK2 (tousled like kinase 2)", "technical replicate": "2", "viability, normalised (%)": 58.7, "activity call": "active"}
{"target gene": "TLK2 (tousled like kinase 2)", "technical replicate": "3", "viability, normalised (%)": 78.2, "activity call": "active"}
{"target gene": "TLK2 (tousled like kinase 2)", "technical replicate": "3", "viability, normalised (%)": 62.3, "activity call": "active"}
{"target gene": "MED30 (mediator complex subunit 30)", "technical replicate": "1", "viability, normalised (%)": 56.1, "activity call": "active"}
{"target gene": "MED30 (mediator complex subunit 30)", "technical replicate": "2", "viability, normalised (%)": 61.5, "activity call": "active"}
{"target gene": "MED30 (mediator complex subunit 30)", "technical replicate": "3", "viability, normalised (%)": 60.4, "activity call": "active"}
